The supplement of paper PMC9233669
Variants at the floor of the assay are shown more often than the library holds them.

Experiments:
[1] = test system: biotinyl-Leu-oxazolone; experiment: self-aminoacylation, catalytic enhancement (BLO) (fold over background); higher = more active; k-Seq, kA / k0A0; sequences stand for … in GGGAAUGGAUCCACAUCUACGAAUUC…UUCACUGCAGACUUGACGAAGCUG
Procedure, shortened: (§1)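 Catalytic enhancement equals the median kA over the uncatalyzed rate, the latter read from the low-activity peak of a bimodal Gaussian fit. Values of kA came from fitting each sequence's fraction reacted to a pseudo-first-order model, with 1000 bootstraps. Reacted RNA was captured with streptavidin and quantified by triplicate qPCR and Illumina sequencing after 90 minutes at room temperature with 2–1250 μM biotinyl-aminoacyl-oxazolone and 0.43 μM mutagenized RNA pools bearing a 21-nt variable region.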

[2] = test system: biotinyl-Ile-oxazolone; experiment: self-aminoacylation, catalytic enhancement (BIO) (fold over background); higher = more active; k-Seq, kA / k0A0; sequences stand for … in GGGAAUGGAUCCACAUCUACGAAUUC…UUCACUGCAGACUUGACGAAGCUG
Procedure, shortened: as §1

[3] = test system: biotinyl-Phe-oxazolone; experiment: self-aminoacylation, catalytic enhancement (BFO) (fold over background); higher = more active; k-Seq, kA / k0A0; sequences stand for … in GGGAAUGGAUCCACAUCUACGAAUUC…UUCACUGCAGACUUGACGAAGCUG
Procedure, shortened: as §1

[4] = test system: biotinyl-Trp-oxazolone; experiment: self-aminoacylation, catalytic enhancement (BWO) (fold over background); higher = more active; k-Seq, kA / k0A0; sequences stand for … in GGGAAUGGAUCCACAUCUACGAAUUC…UUCACUGCAGACUUGACGAAGCUG
Procedure, shortened: as §1

[5] = test system: biotinyl-Val-oxazolone; experiment: self-aminoacylation, catalytic enhancement (BVO) (fold over background); higher = more active; k-Seq, kA / k0A0; sequences stand for … in GGGAAUGGAUCCACAUCUACGAAUUC…UUCACUGCAGACUUGACGAAGCUG
Procedure, shortened: as §1

[6] = test system: biotinyl-Met-oxazolone; experiment: self-aminoacylation, catalytic enhancement (BMO) (fold over background); higher = more active; k-Seq, kA / k0A0; sequences stand for … in GGGAAUGGAUCCACAUCUACGAAUUC…UUCACUGCAGACUUGACGAAGCUG
Procedure, shortened: as §1

Sequence | self-aminoacylation [1] | self-aminoacylation [2] | self-aminoacylation [3] | self-aminoacylation [4] | self-aminoacylation [5] | self-aminoacylation [6]
CCAUACUUCAAGCAUUCGGUC [Fam1B.1 aminoacylation ribozyme variant] | 1.43 | 1.63 | 0.862 | 1.49 | 1.46 | 1.41
AAGAUUGCUAAUAGCCGCAAG [Fam3.1 aminoacylation ribozyme variant] | 1.58 | 1.94 | 1.71 | 2.47 | 1.59 | 1.3
GAGCUUGCUAAUAGUCGCAAG [Fam3.1 aminoacylation ribozyme variant] | 1.56 | 1.93 | 4.81 | 2.4 | 2.02 | 2.03
CUACUUUAAACAAUGGGUCUG [Fam1A.1 aminoacylation ribozyme variant] | 1.05 | 1.18 | 0.872 | 1.22 | 0.966 | 1.27
CCACACUUCAAUCAAUCGGGC [Fam1B.1 aminoacylation ribozyme variant] | 1.16 | 1.4 | 0.522 | 1.45 | 1.79 | 1.55
AAGUUUUCUACUAGUCGCAAG [Fam3.1 aminoacylation ribozyme variant] | 1.79 | 1.99 | 3.09 | 1.86 | 1.51 | 1.67
AAGUGUGCUAAGAGUCGCAAG [Fam3.1 aminoacylation ribozyme variant] | 1.13 | 1.11 | 5.24 | 2.15 | 0.87 | 1.15
CUACUUCAAGCAGUCGGUCUG [Fam1A.1 aminoacylation ribozyme variant] | 1.08 | 0.938 | 0.717 | 0.737 | 0.918 | 0.983
CCACUCUUCAAGCAAUCCGUC [Fam1B.1 aminoacylation ribozyme variant] | 0.701 | 1.06 | 0.865 | 1.44 | 1.12 | 0.765
AAGUUUGCUAACAUUCGCAAG [Fam3.1 aminoacylation ribozyme variant] | 0.918 | 1.18 | 1.41 | 1.37 | 0.945 | 0.885
AUUCAUCUAGGCCAUCGGGUG [Fam2.2 aminoacylation ribozyme variant] | 5.22 | 2.39 | 19 | 3 | 2.84 | 3.38
AUUACUCUGGUCAUCGACUGA [Fam2.1 aminoacylation ribozyme variant] | 0.75 | 1.04 | 0.898 | 1.31 | 0.798 | 0.886
AUUACCCUGGGCAUCUAGUGA [Fam2.1 aminoacylation ribozyme variant] | 7.13 | 3 | 44.6 | 7.33 | 3.38 | 6.2
CCAAACUUCAAGCCAUCGGUC [Fam1B.1 aminoacylation ribozyme variant] | 1.03 | 1.15 | 1.07 | 1.01 | 1.18 | 1.28
CCACACUUCAAGCAUUCGGCC [Fam1B.1 aminoacylation ribozyme variant] | 1.63 | 1.84 | 0.749 | 1.69 | 1.99 | 1.25
CUACUUCAAACUAUCGGACUG [Fam1A.1 aminoacylation ribozyme variant] | 0.697 | 0.935 | 0.65 | 0.547 | 0.893 | 0.643
CUACUUCAAACAAUCUGUCUA [Fam1A.1 aminoacylation ribozyme variant] | 0.598 | 0.853 | 0.811 | 0.525 | 0.801 | 0.641
AGGUUUGCUAAUAGUCGCACG [Fam3.1 aminoacylation ribozyme variant] | 1.75 | 1.32 | 1.86 | 1.49 | 1.23 | 1.66
AUUACCCUGAUCUUCGAGUGA [Fam2.1 aminoacylation ribozyme variant] | 5.04 | 2.56 | 15.7 | 6.11 | 2.74 | 4.57
AAGUUUGCAAAUAGUCGUAAG [Fam3.1 aminoacylation ribozyme variant] | 0.627 | 0.717 | 0.992 | 0.988 | 0.747 | 1.05
AAGUUUGCUAAGACUCGCAAG [Fam3.1 aminoacylation ribozyme variant] | 0.675 | 0.771 | 0.878 | 0.776 | 0.97 | 0.73
AUUAACCUAAGUCAUCGGGUG [Fam2.2 aminoacylation ribozyme variant] | 12.1 | 4.9 | 63.5 | 7.95 | 4.74 | 8.41
UAGUUUGCUAAUAGUUGCAAG [Fam3.1 aminoacylation ribozyme variant] | 1.27 | 1.3 | 1.87 | 1.3 | 1.04 | 1.33
CUACUUCAGACAAUCAGUCUG [Fam1A.1 aminoacylation ribozyme variant] | 0.567 | 0.734 | 0.913 | 0.473 | 0.663 | 0.568
ACGUUUGCUAGUAGUCGCAAG [Fam3.1 aminoacylation ribozyme variant] | 0.784 | 1.28 | 1.61 | 1.29 | 1.16 | 1
AAGUUUGCUAAUUGUCGCACG [Fam3.1 aminoacylation ribozyme variant] | 0.742 | 0.919 | 0.764 | 1.24 | 0.744 | 0.587

Sequence | self-aminoacylation [1] | self-aminoacylation [2] | self-aminoacylation [3] | self-aminoacylation [4] | self-aminoacylation [5] | self-aminoacylation [6]
CUACUUCAAACGAUCGGUCGG [Fam1A.1 aminoacylation ribozyme variant] | 1.16 | 0.961 | 1.27 | 0.765 | 1.15 | 1.39
AUUAUCCUGGUCAUCGAGUCA [Fam2.1 aminoacylation ribozyme variant] | 0.699 | 0.777 | 0.544 | 0.379 | 0.747 | 0.719
AAGUUUGCUAAUAGCCCCAAG [Fam3.1 aminoacylation ribozyme variant] | 0.989 | 0.918 | 1.32 | 1.08 | 0.814 | 0.606
CCACACUUCAAGCUAUCGGUC [Fam1B.1 aminoacylation ribozyme variant] | 0.675 | 0.846 | 1.05 | 0.677 | 0.961 | 0.621
CUAGUUCAUACAAUCGGUCUG [Fam1A.1 aminoacylation ribozyme variant] | 0.812 | 0.83 | 0.871 | 0.672 | 0.823 | 0.847
AUAACCCUGCUCAUCGAGUGA [Fam2.1 aminoacylation ribozyme variant] | 1.35 | 1.25 | 1.63 | 1.69 | 1.53 | 1.48
CCACACUUCAGGCAAUCGGUA [Fam1B.1 aminoacylation ribozyme variant] | 1.23 | 1.24 | 1.97 | 1.04 | 1.33 | 1.43
CUAAUUCGAACAAUCGGUCUG [Fam1A.1 aminoacylation ribozyme variant] | 0.815 | 0.625 | 0.492 | 0.472 | 0.674 | 0.646
CCACACUUGAAACAAUCGGUC [Fam1B.1 aminoacylation ribozyme variant] | 0.61 | 0.893 | 1.07 | 1.15 | 0.885 | 0.892
ACACACUUCAAGCAAUCGGCC [Fam1B.1 aminoacylation ribozyme variant] | 2.54 | 2.7 | 4 | 6.35 | 2.57 | 2.21
CCACACUUCAAGCAAUCGAUA [Fam1B.1 aminoacylation ribozyme variant] | 0.47 | 0.733 | 0.791 | 0.339 | 0.784 | 0.579
CCAUAUUUCAAGCAAUCGGUC [Fam1B.1 aminoacylation ribozyme variant] | 0.92 | 1.12 | 1.26 | 0.917 | 1 | 0.965
AAGUUUACUAAUUGUCGCAAG [Fam3.1 aminoacylation ribozyme variant] | 1.74 | 1.97 | 2.6 | 2 | 1.56 | 1.68
AAGUUUGCUAAUAUUCGCCAG [Fam3.1 aminoacylation ribozyme variant] | 1.37 | 1.05 | 0.921 | 0.947 | 1.06 | 1.28
CCACACUUCAAGGGAUCGGUC [Fam1B.1 aminoacylation ribozyme variant] | 1.48 | 0.943 | 1.05 | 1.38 | 0.944 | 1.34
AUUGCCCUGGUCAUCGAGUGC [Fam2.1 aminoacylation ribozyme variant] | 4.73 | 1.99 | 11.6 | 4.08 | 2.32 | 4.79
CCAAACUUCAAGCAAUCGAUC [Fam1B.1 aminoacylation ribozyme variant] | 0.522 | 0.62 | 1.17 | 0.635 | 0.655 | 0.433
CCACCCUUCAAGCAAUAGGUC [Fam1B.1 aminoacylation ribozyme variant] | 0.529 | 0.645 | 0.807 | 0.452 | 0.711 | 0.575
CUACUUCAAACUAUCGGUUUG [Fam1A.1 aminoacylation ribozyme variant] | 0.829 | 0.944 | 0.88 | 0.697 | 0.961 | 0.748
AUUGCCCUGGUCAUCGUGUGA [Fam2.1 aminoacylation ribozyme variant] | 3.19 | 1.51 | 24 | 3.2 | 1.87 | 2.93
AAGUUUGCUUAUAGCCGCAAG [Fam3.1 aminoacylation ribozyme variant] | 0.71 | 0.776 | 1.36 | 0.793 | 0.658 | 0.698
AAGUUUUCUAAUACUCGCAAG [Fam3.1 aminoacylation ribozyme variant] | 1.16 | 1.41 | 1.08 | 1.1 | 1.23 | 1.13
AUUCACCUAGGUCAUGGUGUG [Fam2.2 aminoacylation ribozyme variant] | 0.994 | 0.936 | 0.397 | 0.519 | 0.932 | 0.846
CUACGUCACACAAUCGGUCUG [Fam1A.1 aminoacylation ribozyme variant] | 0.98 | 0.999 | 0.794 | 0.986 | 0.962 | 0.943
CCACACUCCAAGCAAGCGGUC [Fam1B.1 aminoacylation ribozyme variant] | 0.855 | 1.38 | 0.791 | 0.741 | 1.07 | 0.857
